In all, about 580,000 compounds went through this assay and about 6,100 (1.1%) were called active. The inconclusive results got no clear call from the source; some entries with a clear call stand among them for comparison. Calls follow the shape of the dose curve; as a rule, active = well fitted inhibition curve with a large enough effect; inconclusive = small, poorly fitted or top-dose-only effect, or another doubt; inactive = no such curve, though single readings can be large or run the other way. Potencies of inconclusive entries are doubtful fits and often do not repeat.
Target: Polyunsaturated fatty acid lipoxygenase ALOX12 (Homo sapiens) (UniProt P18054)
Experiment: Primary qHTS assay for inhibitors of human arachidonate 12S-lipoxygenase (ALOX12): Round 2
Conditions: purified 12hLO, xylenol orange hydroperoxide absorbance; activity change, negative = inhibition: at 108 µM (top of the series) unless noted
How it was run: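 Purified human 12hLO at 150 nM in 25 mM Hepes, 0.01% Triton X-100, pH 7.0, preincubated 15 min at room temperature with compound. Reaction started with 40 uM arachidonic acid, 30 min at room temperature. Hydroperoxide measured by Fe-xylenol orange, 573/405 nm absorbance ratio.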
% is scaled to controls: 0 for no effect and ±100 for the full control effect; potency is read from the fitted curve at half-maximal effect.

By UniProt entry, the sequences of proteins in these tests, tags left out. Where a name states a change or a piece, a line headed by the entry shows the natural chain unless it says otherwise.
UniProt P18054: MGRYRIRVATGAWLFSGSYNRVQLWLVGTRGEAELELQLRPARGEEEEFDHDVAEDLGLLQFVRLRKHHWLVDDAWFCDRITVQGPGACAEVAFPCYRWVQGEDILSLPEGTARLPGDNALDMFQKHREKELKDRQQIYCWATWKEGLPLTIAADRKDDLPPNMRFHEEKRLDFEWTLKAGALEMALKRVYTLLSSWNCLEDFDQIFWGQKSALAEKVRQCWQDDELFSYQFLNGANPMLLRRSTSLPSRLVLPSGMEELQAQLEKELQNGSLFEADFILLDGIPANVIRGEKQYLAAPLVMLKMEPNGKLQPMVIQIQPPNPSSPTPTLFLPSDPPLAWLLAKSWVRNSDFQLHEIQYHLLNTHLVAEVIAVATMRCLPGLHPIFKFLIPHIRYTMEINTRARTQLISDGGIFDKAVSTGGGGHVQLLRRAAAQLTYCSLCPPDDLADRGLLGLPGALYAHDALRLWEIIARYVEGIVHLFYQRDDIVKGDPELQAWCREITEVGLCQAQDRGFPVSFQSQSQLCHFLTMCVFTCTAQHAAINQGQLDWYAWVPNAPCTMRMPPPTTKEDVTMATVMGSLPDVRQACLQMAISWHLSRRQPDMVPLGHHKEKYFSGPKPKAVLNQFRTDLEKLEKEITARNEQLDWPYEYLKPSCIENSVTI

Row | SMILES | Potency | activity change, negative = inhibition
1 | CCOc1ccc2c(O)csc2c1 | inconclusive: 28.2 µM [inhibitor, full curve, poor fit] | 
2 | Nc1n[nH]c(=S)n1-c1ccc(Cl)cc1 | inconclusive: 89.1 µM [inhibitor, partial curve, poor fit] | 
3 | CS(=O)(=O)c1ccc2nc(NC(=O)Nc3ccc(Cl)cc3)sc2c1 | inconclusive: 79.4 µM [inhibitor, partial curve, poor fit] | 
4 | Cc1ccsc1C(=O)N1CCC(c2n[nH]c(=O)n2Cc2ccc(F)cc2)CC1 | inconclusive: 17.8 µM [inhibitor, single point] | 
5 | CCCCCN1CC(=O)N2[C@@H](Cc3c([nH]c4ccccc34)C2(C)C)C1=O |  | inactive: 1.54%
6 | CCCc1cc(=O)oc2c(CNc3ccc(OCC)cc3)c(O)ccc12 | inconclusive: 44.7 µM [inhibitor, partial curve, poor fit] | 
7 | COc1ccc(-c2csc(NC(C)c3nc4cc(Cl)c(Cl)cc4n3CCCO)n2)cc1 (stereo not drawn) | inconclusive: 44.7 µM [inhibitor, partial curve, poor fit] | 
8 | Cc1ccccc1NC(=S)N/N=C/c1ccccc1[N+](=O)[O-] | inconclusive: 112 µM [inhibitor, partial curve, poor fit] | 
9 | CCCn1c(N2CCN(Cc3ccc(Cl)cc3)CC2)nc2ccccc21 | inconclusive: 39.8 µM [inhibitor, partial curve] | 
10 | Cc1cc(C)n(CCCNC(=O)c2cc(COc3ccc4sc(C)nc4c3)on2)n1 |  | inactive: 25.2%
11 | COc1cccc(-c2nc(Nc3ccncc3)c3ccccc3n2)c1 | inconclusive: 44.7 µM [inhibitor, partial curve, poor fit] | 
12 | O=C(CSc1nnc2ccc(-c3ccc(Br)cc3)nn12)NCc1ccc2c(c1)OCO2 | inconclusive: 5.62 µM [inhibitor, full curve, poor fit] | 
13 | Cc1ccc(C(=O)NC(=S)N(C)C2CCCCC2)cc1Br | inconclusive: 4.47 µM [inhibitor, full curve, poor fit] | 
14 | Nc1nc(N2CCOCC2)nc2c1C(C(=O)Nc1ccc(Br)cc1)CC(=O)N2 (stereo not drawn) | inconclusive: 56.2 µM [inhibitor, partial curve, poor fit] | 
15 | CN(C)/C(CN1CCN(C=O)CC1)=C1\N=C(c2ccccc2)OC1=O |  | inactive: 6.61%
16 | CCOC(=O)c1ccc(NC(=O)C(=O)NCC2(c3ccc(OC)cc3)CCOCC2)cc1 |  | inactive: 0%
17 | CCN1c2cc(C(=O)NCc3ccc(Br)cc3)ccc2C(=O)N2CCCCC21 (stereo not drawn) | inconclusive: 25.1 µM [inhibitor, partial curve] | 
18 | CCOC(=O)C1=C(C)N(C)C(=O)NC1c1cccc([N+](=O)[O-])c1 (stereo not drawn) | inconclusive: 3.55 µM [inhibitor, full curve, poor fit] | 

A draw from above in order of molar mass, largest number first:
Row | SMILES | Potency | activity change, negative = inhibition
16 | CCOC(=O)c1ccc(NC(=O)C(=O)NCC2(c3ccc(OC)cc3)CCOCC2)cc1 |  | inactive: 0%
6 | CCCc1cc(=O)oc2c(CNc3ccc(OCC)cc3)c(O)ccc12 | inconclusive: 44.7 µM [inhibitor, partial curve, poor fit] | 
2 | Nc1n[nH]c(=S)n1-c1ccc(Cl)cc1 | inconclusive: 89.1 µM [inhibitor, partial curve, poor fit] | 
